Measurements: patent US20260382583A1, “LPA1 ANTAGONISTS FOR TREATING INTERSTITIAL LUNG DISEASE” (published 2026)
“Also recorded” adds a separate entry of the source. Not every entry of the source has a single result; some have several. The other results are left out here. An entry can have further records. The values listed for one entry differ for a reason that is not stated; they may come from other doses, times, organisms or constructs than stated.

What was measured:
participants with PPF [1] = experiment: Phase 2 PPF cohort: efficacy (FVC, ppFVC), 26 weeks; conditions: 60 mg BID, overall, primary estimand
Experimental: A total of 123 participants with PPF were randomized. Participants (age ≥21 years) were randomized (1:1:1) to receive 30 mg or 60 mg Compound A or PBO twice daily for 26 weeks. […] Immunosuppressive medications (mycophenolate mofetil, mycophenolic acid, azathioprine and/or tacrolimus) were permitted only if dosing is stable for ≥6 months prior to screening. If receiving antifibrotic agents pirfenidone or nintedanib, patients had to receive a stable dosage for ≥3 months prior to screening and during the screening period; if not receiving pirfenidone or nintedanib, patients had to be naive to both drugs or not have received either 4 weeks prior to Day 1. A total of 47 (38.2%) subjects were receiving antifibrotic treatment (with or without immunosuppression therapy). Of those subjects, 34 were being treated with nintedanib and 13 with pirfenidone. […]
The main efficacy endpoint, rate of FVC decline (in % of predicted) from baseline to wk-26 in the PPF cohort, was estimated using a linear mixed-effects model utilizing all FVC timepoints. It was analyzed under a primary estimand (utilizing all data, treatment policy strategy), and under supplementary estimand (utilizing all data up to the point of dose reduction, while-on-treatment strategy). […]

participants with PPF [2] = experiment: Phase 2 PPF cohort: safety and blood pressure monitoring
Experimental: A total of 123 participants with PPF were randomized. Participants (age ≥21 years) were randomized (1:1:1) to receive 30 mg or 60 mg Compound A or PBO twice daily for 26 weeks. […] Immunosuppressive medications (mycophenolate mofetil, mycophenolic acid, azathioprine and/or tacrolimus) were permitted only if dosing is stable for ≥6 months prior to screening. If receiving antifibrotic agents pirfenidone or nintedanib, patients had to receive a stable dosage for ≥3 months prior to screening and during the screening period; if not receiving pirfenidone or nintedanib, patients had to be naive to both drugs or not have received either 4 weeks prior to Day 1. A total of 47 (38.2%) subjects were receiving antifibrotic treatment (with or without immunosuppression therapy). Of those subjects, 34 were being treated with nintedanib and 13 with pirfenidone. Participants were stratified by usual interstitial pneumonia (UIP) pattern (presence versus absence) and background therapy (antifibrotics+/−ILD-targeted immunosuppression versus ILD-targeted immunosuppression alone versus none).UIP pattern was present in 52% of subjects and unclassifiable ILD was the most common disease categorization.
Patient is experiencing any of the following, confirmed by retest within 15 minutes: • Seated systolic blood pressure <85 mmHg • Seated diastolic blood pressure <55 mmHg • Orthostatic hypotension
Patient is experiencing symptoms that, in the investigator's opinion, could be associated with a reduction in blood pressure and is also experiencing at least one of the following, confirmed by retest within 15 minutes: • Seated systolic blood pressure <100 mmHg or seated diastolic blood pressure <60 mmHg • Decrease of seated systolic blood pressure of ≥20 mmHg from the previous visit or decrease of seated diastolic blood pressure of ≥10 mmHg from the previous visit • Orthostatic hypotension • Orthostatic tachycardia

Q: With `CCCN(C)C(=O)OCc1c(-c2ccc(O[C@H]3CCC[C@H](C(=O)O)C3)c(C)n2)nnn1C` as the molecule, how does the “Relative reduction in rate of decline in FVC (% predicted)” value (participants with PPF [1]) read?
A: 74%; also recorded: Policy Strategy (Relative Reduction = 74%)

Q: What about the “Asymptomatic blood pressure reduction” value (participants with PPF [2]; 30 mg BID) of the same molecule?
A: 9 no and (22.5) %

Q: And the COVID-19 (participants with PPF [2]; 30 mg BID)?
A: 6 no and (15.0) %

Q: And the Cough (participants with PPF [2]; 30 mg BID)?
A: 3 no and (7.5) %

Q: And the Diarrhea (participants with PPF [2]; 30 mg BID)?
A: 6 no and (15.0) %

Q: What about the Dose reductions (participants with PPF [2]; 30 mg BID) of the same molecule?
A: 6 no and (15.0) %

Q: And the Dyspnea (participants with PPF [2]; 30 mg BID)?
A: 2 no and (5.0) %

Q: And the Hypotension (participants with PPF [2]; 30 mg BID)?
A: 4 no and (10.0) %

Q: What about the Nausea (participants with PPF [2]; 30 mg BID) of the same molecule?
A: 4 no and (10.0) %

Q: And the “Orthostatic hypotension (asymptomatic criteria)” value (participants with PPF [2]; 30 mg BID)?
A: 6 no and (15.0) %

Q: And the “Orthostatic hypotension (symptomatic criteria)” value (participants with PPF [2]; 30 mg BID)?
A: 1 no and (2.5) %

Q: What about the “Patients with ≥1 TEAE” value (participants with PPF [2]; 30 mg BID) of the same molecule?
A: 33 no and (82.5) %

Q: What about the “Patients with ≥1 TEAE related to study drug” value (participants with PPF [2]; 30 mg BID) of the same molecule?
A: 7 no and (17.5) %

Q: What about the “Patients with ≥1 TESAE” value (participants with PPF [2]; 30 mg BID) of the same molecule?
A: 4 no and (10.0) %

Q: And the Rash (participants with PPF [2]; 30 mg BID)?
A: 3 no and (7.5) %

Q: What about the “Symptomatic blood pressure reduction” value (participants with PPF [2]; 30 mg BID) of the same molecule?
A: 2 no and (5.0) %

Q: What about the Vomiting (participants with PPF [2]; 30 mg BID) of the same molecule?
A: 3 no and (7.5) %

Q: What about the Orthostatic hypotension (participants with PPF [2]; 30 mg BID (Table 26)) of the same molecule?
A: 2 no and (5.0) %

Q: What about the “Asymptomatic blood pressure reduction” value (participants with PPF [2]; 60 mg BID) of the same molecule?
A: 13 no and (31.0) %

Q: What about the COVID-19 (participants with PPF [2]; 60 mg BID) of the same molecule?
A: 6 no and (14.3) %

Q: And the Cough (participants with PPF [2]; 60 mg BID)?
A: 5 no and (11.9) %

Q: And the Diarrhea (participants with PPF [2]; 60 mg BID)?
A: 3 no and (7.1) %

Q: And the Dizziness (participants with PPF [2]; 60 mg BID)?
A: 4 no and (9.5) %

Q: And the Dose reductions (participants with PPF [2]; 60 mg BID)?
A: 5 no and (11.9) %

Q: And the Hypertension (participants with PPF [2]; 60 mg BID)?
A: 1 no and (2.4) %

Q: What about the Hypotension (participants with PPF [2]; 60 mg BID) of the same molecule?
A: 3 no and (7.1) %

Q: What about the Nausea (participants with PPF [2]; 60 mg BID) of the same molecule?
A: 1 no and (2.4) %

Q: And the “Orthostatic hypotension (asymptomatic criteria)” value (participants with PPF [2]; 60 mg BID)?
A: 11 no and (26.2) %

Q: And the “Orthostatic hypotension (symptomatic criteria)” value (participants with PPF [2]; 60 mg BID)?
A: 4 no and (9.5) %

Q: What about the “Patients with ≥1 TEAE” value (participants with PPF [2]; 60 mg BID) of the same molecule?
A: 28 no and (66.7) %

Q: And the “Patients with ≥1 TEAE related to study drug” value (participants with PPF [2]; 60 mg BID)?
A: 11 no and (26.2) %

Q: And the “Patients with ≥1 TESAE” value (participants with PPF [2]; 60 mg BID)?
A: 5 no and (11.9) %

Q: What about the “Symptomatic blood pressure reduction” value (participants with PPF [2]; 60 mg BID) of the same molecule?
A: 6 no and (14.3) %

Q: And the Orthostatic hypotension (participants with PPF [2]; 60 mg BID (Table 26))?
A: 4 no and (9.5) %
